Laboratory results taken from patent US20240325334A1, “COMPOSITION FOR GENERATING NITROGEN MONOXIDE” (SEOUL NATIONAL UNIVERSITY R&DB FOUNDATION, priority 2021, published 2024).
Counter-ions that a name gives are not always drawn.

Test: NO generation experiment: compound reacted with H2O2 in the presence of a catalyst, Griess assay
Conditions: compound 1 mg/ml, PBS pH 5.5, 1 mM H2O2, 37° C., 4 hours
Description: Generation of nitric oxide was investigated by reacting the above-described compounds having a structure of
with hydrogen peroxide (H2O2) in the presence of a catalyst. After suspending particles including 1 mg/ml of the compound below and the catalyst in a medium composed of 5 ml of PBS at pH 5.5 and hydrogen peroxide (H2O2) at 1 mM concentration, the suspension was subjected to incubation at 37° C. for 4 hours, followed by sampling the supernatant to analyze the NO generation through Griess assay.

SMILES: COC(=O)[C@H](CCCNC(=N)N)NS(=O)(=O)c1ccc(C)cc1 [Nα-Tosyl-L-arginine Methyl Ester Hydrochloride]
- Concentration of generated NO (catalyst Mn-porphyrin 2 mg/ml): 45 µM
- Concentration of generated NO (catalyst PCN-223-Fe 1 mg/ml): 187 µM
